Test [1] concerns the target endogenous PD-L1 in B16-F10 and MC38 cells (mouse (endogenous in B16-F10 and MC38)) (UniProt Q9EP73). Briefly: co-IP; endogenous PD-L1 with RAB proteins and exocyst components in MC38, B16-F10 and A375 cells, control and MIB2 KO.
Test [2] shares this target. Briefly: proximity ligation; in situ PLA of PD-L1 and MIB2 in A375, B16-F10 and MC38 cells.
The target is the same in test [3]. Briefly: co-IP; endogenous MIB2 and PD-L1 in A375, B16-F10 and MC38 cells.

By UniProt entry, the sequences of proteins in these tests, tags left out. Residues count along the entry.
UniProt Q9EP73, residues 19-290: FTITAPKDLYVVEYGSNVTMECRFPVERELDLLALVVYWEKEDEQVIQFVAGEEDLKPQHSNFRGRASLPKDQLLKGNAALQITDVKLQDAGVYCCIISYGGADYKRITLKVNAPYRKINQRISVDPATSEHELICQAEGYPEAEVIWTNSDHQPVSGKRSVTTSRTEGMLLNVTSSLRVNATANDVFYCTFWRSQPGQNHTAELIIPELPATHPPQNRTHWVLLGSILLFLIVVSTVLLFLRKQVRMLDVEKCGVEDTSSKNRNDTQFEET
UniProt O35382: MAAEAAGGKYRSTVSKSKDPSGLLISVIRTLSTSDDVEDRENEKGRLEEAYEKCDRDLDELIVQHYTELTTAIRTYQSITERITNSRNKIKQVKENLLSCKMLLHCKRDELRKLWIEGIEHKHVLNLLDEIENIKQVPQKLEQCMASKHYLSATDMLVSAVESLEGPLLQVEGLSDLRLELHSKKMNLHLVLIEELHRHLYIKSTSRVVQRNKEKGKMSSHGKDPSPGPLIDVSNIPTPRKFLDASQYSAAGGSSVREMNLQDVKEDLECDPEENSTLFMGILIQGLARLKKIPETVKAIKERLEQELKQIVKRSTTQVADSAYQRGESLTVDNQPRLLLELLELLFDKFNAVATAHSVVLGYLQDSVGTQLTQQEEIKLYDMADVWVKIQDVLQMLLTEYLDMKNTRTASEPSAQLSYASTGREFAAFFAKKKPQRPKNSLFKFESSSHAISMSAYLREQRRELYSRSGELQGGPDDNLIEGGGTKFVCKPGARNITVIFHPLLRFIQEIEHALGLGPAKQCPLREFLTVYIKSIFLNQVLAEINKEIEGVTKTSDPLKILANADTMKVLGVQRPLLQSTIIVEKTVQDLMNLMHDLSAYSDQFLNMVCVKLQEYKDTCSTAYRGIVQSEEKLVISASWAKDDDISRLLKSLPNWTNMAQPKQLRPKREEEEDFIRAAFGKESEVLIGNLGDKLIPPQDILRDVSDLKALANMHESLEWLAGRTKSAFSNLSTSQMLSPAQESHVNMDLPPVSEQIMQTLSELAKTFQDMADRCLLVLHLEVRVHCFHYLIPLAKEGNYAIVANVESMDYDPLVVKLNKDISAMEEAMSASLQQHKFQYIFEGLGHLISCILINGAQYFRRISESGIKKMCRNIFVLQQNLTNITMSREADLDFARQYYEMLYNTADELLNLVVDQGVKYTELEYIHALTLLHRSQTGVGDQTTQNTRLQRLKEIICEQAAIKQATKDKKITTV
UniProt Q9D4H1: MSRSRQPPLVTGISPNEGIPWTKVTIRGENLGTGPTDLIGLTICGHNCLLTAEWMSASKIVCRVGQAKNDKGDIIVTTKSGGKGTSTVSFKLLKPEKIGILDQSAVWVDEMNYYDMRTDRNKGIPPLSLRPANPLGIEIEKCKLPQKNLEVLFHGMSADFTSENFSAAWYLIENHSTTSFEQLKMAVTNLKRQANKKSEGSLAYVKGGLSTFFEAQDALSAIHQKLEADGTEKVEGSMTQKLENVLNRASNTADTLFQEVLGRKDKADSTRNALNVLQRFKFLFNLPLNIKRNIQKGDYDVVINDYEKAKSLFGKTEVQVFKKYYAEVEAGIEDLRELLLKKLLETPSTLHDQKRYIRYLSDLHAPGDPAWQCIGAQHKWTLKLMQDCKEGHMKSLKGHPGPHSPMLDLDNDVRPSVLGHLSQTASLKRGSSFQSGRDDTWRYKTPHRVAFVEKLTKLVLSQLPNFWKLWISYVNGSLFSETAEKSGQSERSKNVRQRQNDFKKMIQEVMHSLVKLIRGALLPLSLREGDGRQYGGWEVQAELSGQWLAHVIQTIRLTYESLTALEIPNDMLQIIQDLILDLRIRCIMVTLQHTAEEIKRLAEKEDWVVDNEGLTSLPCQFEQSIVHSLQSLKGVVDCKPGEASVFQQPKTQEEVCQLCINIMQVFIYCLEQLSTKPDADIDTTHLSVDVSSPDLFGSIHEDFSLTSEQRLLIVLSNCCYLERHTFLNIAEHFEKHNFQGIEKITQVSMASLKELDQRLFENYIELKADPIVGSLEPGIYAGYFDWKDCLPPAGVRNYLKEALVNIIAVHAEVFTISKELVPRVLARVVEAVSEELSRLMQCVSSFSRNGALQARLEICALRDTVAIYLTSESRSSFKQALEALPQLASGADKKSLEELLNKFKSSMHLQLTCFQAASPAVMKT

These are yes or no findings as the source states them, for the method shown. In cells and extracts the contact can be indirect. Some entries that bind do so weakly or less than the wild type.

In the case of EXOC4 (from UniProt O35382 1-975), the binding entry in test [1] is on record as “binds”.
On the same count and under the same terms, for EXOC2 (from UniProt Q9D4H1 1-924) the value was “binds”.

B1: RALGDS (protein, UniProt Q03385 1-852)
chain: MMVDCQSSTQEIGEELINGVIYSISLRKVQLHQGATKGQRWLGCENESALNLYETCKVRTVKAGTLEKLVEHLVPAFQGSDLSYVTVFLCTYRAFTTTQQVLDLLFKRYGRCDALTASSRYGCILPYSSEDGGPQDQLKNAISSILGTWLDQYSEDFCQPPDFPCLKQLVAYVQLNMPGSDLERRAHLLLAQLEDLEPSEAESEALSPAPVLSLKPASQLEPALLLTPSQVVTSTPVREPAAAPVPVLASSPVVAPAPELEPVPEPPQEPEPSLALAPELEPAVSQSLELESAPVPTPALEPSWSLPEATENGLTEKPHLLLFPPDLVAEQFTLMDAELFKKVVPYHCLGSIWSQRDKKGKEHLAPTIRATVAQFNNVANCVITTCLGDQSMKAPDRARVVEHWIEVARECRALKNFSSLYAILSALQSNAIHRLKKTWEEVSRDSFRVFQKLSEIFSDENNYSLSRELLIKEGTSKFATLEMNPRRAQRRQKETGVIQGTVPYLGTFLTDLVMLDTAMKDYLYGRLINFEKRRKEFEVIAQIKLLQSACNNYSIAPEEHFGTWFRAMERLSEAESYTLSCELEPPSESASNTLRSKKSTAIVKRWSDRQAPSTELSTSSSAHSKSCDQLRCSPYLGSGDITDALSVHSAGSSSSDVEEINMSFVPESPDGQEKKFWESASQSSPETSGISSASSSTSSSSASTTPVSTTRTHKRSVSGVCSYSSSLPLYNQQVGDCCIIRVSLDVDNGNMYKSILVTSQDKAPTVIRKAMDKHNLDEDEPEDYELVQIISEDHKLKIPENANVFYAMNSTANYDFILKKRTFTKGAKVKHGASSTLPRMKQKGLRIAKGIF
On to B1, for which the binding entry in test [1] is “binds”.

B2: endogenous MIB2 in B16-F10 and MC38 cells (enzyme, UniProt Q8R516 1-973)
chain: MDLDPHAGVQVGMRVVRGMDWKWGQQDGGEGGVGTVVELGRHGSPSTPDRTVVVQWDQGTRTNYRAGYQGAHDLLLYDNAQIGIRHPNIICDCCKKHGLRGMRWKCRVCFDYDLCTQCYMHNKHDLTHAFERYETSHSRPVTLSPRQGLPRIPLRGIFQGAKVVRGPDWEWGSQDGGEGKTGRVVDIRGWDVETGRSVASVTWADGTTNVYRVGHKGKVDLRCVGEAAGGFYYKEHLPKLGKPAELQRRVSADGQPFQRGDKVKCLLDTDVLRDMQEGHGGWNPRMAEFIGQMGTVHRITDRGDVRVQFNHETRWTFHPGALTKHNSFWVGDVVRVIGDLDTVKRLQAGHGEWTDDMAPALGRVGKVVKVFGDGNLRVAVGGQRWTFSPSCLVAYRPEEDANLDVAERARENKSAASVSVAGSLSVALDKLRTQKSDPEHPGRLVVEAALGNVARALDLLRRHPEQASYHPALVVDTKNQGRTALQVAAYLGQVELVRLLLQARASMDLPDDEGNTVLHYTAMGNQPEATRVLLSAGCAVDARNGTRSTALHVAVQRGFLEVVKILCERGCDVNLPDAHADTPLHSAISAGAGASSIVEVLTEVPGIDVTATNSQGFTLLHHASLKGHVLAVRKILARARQLVDAKKEDGFTALHLAALNNHREVAQVLIREGRCDVNVRNRKLQSPLHLAVQQAHLGLVPLLVDAGCSVNTEDEEGDTALHVALQRHQLLPLVADRAGGDPGPLQLLSRLQASGLPGCTELTVGAAVACFLALEGADVSYANHRGRSPLDLATEGRVLKALQGCAQRFRERQAGGGGGVPPGPRHVLSTPNTVTNLHVSGTAGPEAAECLVCSELALLILFSPCQHRTVCEECARRMKKCIRCQVVISKKLRPDGSEVVNAIQVPGPPRQLVEELQSRYRQMEERITCPICIDSHIRLVFQCGHGACAPCGAALNACPICRQPIRDRIQIFV
For the molecule B2, the binding entry in test [2] and in test [3] was “binds” in each case.

These data come from PMC9888393.
